Laboratory results published in PubChem BioAssay AID493014 (National Center for Advancing Translational Sciences (NCATS), 2011).
The other results are listed elsewhere or left out. Further columns of the screen follow, without active or inactive calls. Most of these compounds were active or inconclusive in the main read-out, so they are no random draw. Words in brackets tell the shape of the fitted curve; partial curves, single points and poor fits give uncertain potencies.

Test: qHTS Assay to Find Inhibitors of Chronic Active B-Cell Receptor Signaling
Conditions: ABC-DLBCL IkBa-CBG/CBR reporter, luminescence ratio (green luciferase fused to IkBa over red control in TMD8 lymphoma cells), 4 h
Outline: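 TMD8 human ABC-DLBCL cells with doxycycline-inducible IκBα–green luciferase fusion and unfused red luciferase, in 0.5% FBS medium; compounds up to 46 uM, 4 h at 37C. Green/red luminescence ratio, filter-overlap corrected, fitted to concentration-response curves.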

[1] = measured here: CBR red luminescence, cell number
[2] = measured here: IkBa-CBG green luminescence

Compound | AC50 [1] | AC50 [2]
Cc1ccc2c(c1)CCCN2C(=O)CSc1ccccc1 | 5.62 µM [rising, single point] | –
COc1ccc(/C=C2\SC(=O)N(CCCC(=O)Nc3cc(Cl)ccc3C(=O)O)C2=O)cc1 | 0.206 µM [falling, full curve] | –
CCOc1ccc2nc(N/C(N)=N/C(=S)Nc3cccc(C)c3)nc(C)c2c1 | 0.794 µM [rising, full curve] | –
Oc1ccccc1-c1nc(NCc2ccco2)c2ccccc2n1 | 29.1 µM [falling, single point] | –
Cc1ccc(-c2cc(C(=O)Nc3cc(C)ccc3C)[nH]n2)c(O)c1 | 0.0366 µM [falling, full curve] | –
COc1ccc([C@@]2(O)c3c(ccc(CC=C(C)C)c3O)NC(=O)[C@@H]2OC)cc1 | 35.5 µM [falling, single point] | –
COc1cc(/C=C/C(=O)NC(C)(C)C)ccc1OCc1ccccc1 | 9.2 µM [rising, partial curve] | –
O=C(CC1CC2CCC1C2)N1CCN(S(=O)(=O)c2ccccc2[N+](=O)[O-])CC1 (stereo not drawn) | 0.366 µM [rising, partial curve, poor fit] | –
Nc1c(-c2cccs2)cnn1-c1nc(-c2ccc(Cl)cc2Cl)cs1 | 0.631 µM [falling, full curve, poor fit] | –
CCc1ccc(C2=CC(c3cccc(OC)c3OC)n3c(nc4ccccc43)N2)cc1 (stereo not drawn) | 10 µM [falling, partial curve, poor fit] | –
CC1(C)CC(=O)c2sc(NS(=O)(=O)Cc3ccccc3)nc2C1 | 2.31 µM [rising, full curve, poor fit] | –
C(=N\NCc1ccccc1)/c1ccc2nccnc2c1 | 22.4 µM [falling, single point] | –
Fc1ccccc1/C=N/Nc1ncnc2ccccc12 | 11.2 µM [falling, partial curve] | –
Cc1csc(NC(=O)c2nc(-c3ccccc3)n(-c3ccccc3)n2)n1 | 0.316 µM [rising, full curve, poor fit] | –
O=C(NC(=S)NCCc1ccccc1)c1ccccc1F | 12.6 µM [falling, partial curve] | –
O=C(O)c1ccccc1SCC(=O)N1CCOCC1 | 0.398 µM [rising, full curve, poor fit] | –
COc1ccc(NC(=O)NCc2cccn2C)c(OC)c1 | 11.2 µM [falling, partial curve] | –
COc1ccc(CNC(=O)C2C3C=CC4(CN(Cc5cccnc5)C(=O)C24)O3)cc1 (stereo not drawn) | 4.11 µM [rising, single point] | –
O=C(Nc1ccc(F)c(Cl)c1)C1CCN(S(=O)(=O)c2cccnc2)CC1 | 25.9 µM [falling, single point] | –
COc1ccc2c(c1)Cc1sc(NC(=O)c3ccccc3)nc1-2 | 2.91 µM [falling, full curve] | –
Cc1ccc(-c2csc(NC(=O)CSC3=NCCS3)n2)cc1 | 23.1 µM [falling, single point] | –
CCCNCc1nnc(-c2ccccc2Cl)o1 | 6.51 µM [falling, partial curve] | –
COc1ccc(CNS(=O)(=O)c2ccc(-n3cnnn3)c(C)c2)cc1 | 35.5 µM [falling, single point] | –

Compound | AC50 [1] | AC50 [2]
CC1CCCC/C1=N\NC(=S)NCCc1ccccc1 (stereo not drawn) | 35.5 µM [rising, single point] | 12.6 µM [falling, partial curve, poor fit]
CC(C)(CCl)C(=O)Nc1ccc(Sc2ccc(F)cc2)cc1 | 35.5 µM [falling, single point] | –
O/N=C/c1ccccc1Oc1ccc(Cl)cc1 | 20 µM [rising, single point] | –
CCOC(=O)c1cc2sccc2n1Cc1ccccc1 | 7.31 µM [rising, partial curve, poor fit] | –
COC(=O)c1cccc(CN2C(=O)SC(Nc3ccccc3)C2=O)c1 (stereo not drawn) | 3.55 µM [rising, single point] | –
O=C(NNS(=O)(=O)c1ccc(Cl)cc1)c1cc(-c2ccccc2)n[nH]1 | 12.6 µM [falling, partial curve, poor fit] | –
COc1cccc(CN2CCCC(C(=O)N3CCCCC3)C2)c1 (stereo not drawn) | 35.5 µM [rising, single point] | –
Cc1nc2nc(COc3ccccc3)[nH]n2c(=O)c1Cl | 0.291 µM [falling, full curve] | –
CCc1ccc(S(=O)(=O)/N=C2\C=C(Nc3ccc(O)cc3)C(=O)c3ccccc32)cc1 | 5.01 µM [falling, full curve] | –
Cc1ccc(C(=O)N/N=C\c2ccc([N+](=O)[O-])o2)cn1 | 35.5 µM [falling, single point] | –
CCOC(=O)c1cnn2c(N)c(C#N)nnc12 | 22.4 µM [falling, single point] | –
COc1cc(/C=N/NC(=O)c2cc3c(ccc4ccccc43)o2)cc(OC)c1O | 7.08 µM [falling, partial curve] | –
Nc1ccccc1C(=O)N/N=C1\C2CN3CCN(C2)CC1(c1ccccc1)C3 | 10.3 µM [falling, partial curve] | –
COc1ccc(Nc2cc(C(=O)NCCCN(C)Cc3ccccc3)c3ccccc3n2)cc1OC | 7.94 µM [falling, partial curve, poor fit] | –
O=C(Nc1ccc(F)cc1)c1oc2ccccc2c1NC(=O)C1CC1 | 0.398 µM [falling, full curve] | –
N#CC1=C(N)Nc2ncnn2C1c1ccc(F)cc1 (stereo not drawn) | 18.4 µM [falling, single point] | –
COc1ccccc1NC(=O)C(=O)NCCC1CCCCN1S(=O)(=O)c1ccccc1 (stereo not drawn) | 2.59 µM [falling, partial curve, poor fit] | –
CCOC(=O)c1c(NC(=O)CN2CCN(C(=O)c3ccco3)CC2)sc2c1CCCC2 | 14.6 µM [falling, partial curve] | –
CC1CC(C)CN(C(=O)c2ccc3c(c2NCCO)C(=O)c2ccccc2C3=O)C1 (stereo not drawn) | – | 5.17 µM [rising, partial curve, poor fit]
Cc1nn(Cc2ccccc2)c2sc(C(=O)NCc3cccnc3)cc12 | 5.01 µM [rising, full curve, poor fit] | –
N#C/C(=C/c1cccc(O)c1)C(=O)NCc1ccc(Cl)cc1 | 31.6 µM [falling, single point] | –
Cc1cccc(NC(=O)CSc2nnc(-c3ccccc3C)o2)c1 | 10.3 µM [rising, partial curve, poor fit] | –
Fc1ccccc1Nc1nc2ccccc2o1 | 11.2 µM [falling, partial curve, poor fit] | –

Compound | AC50 [1] | AC50 [2]
CCCOc1ccc(-c2c(C(=O)N/N=C/c3ccncc3)nnn2-c2nonc2N)cc1 | 12.6 µM [rising, partial curve, poor fit] | –
Cc1cc(C)c2c(=O)n(CC(=O)Nc3ccc(Cl)cc3)sc2n1 | 25.1 µM [falling, single point] | –
COc1cccc(/C(C)=N/Nc2ccc(S(=O)(=O)N3CCCCC3)cn2)c1 | 0.231 µM [rising, full curve, poor fit] | –
COc1cc(CCC(=O)NCc2ccc(Cl)cc2)cc(OC)c1OC | 5.62 µM [rising, single point] | –
CCOC(=O)c1ccc(NC(=S)Nc2cccc(C)n2)cc1 | 1.3 µM [rising, full curve, poor fit] | –
COc1cccc(/C=N/n2cnc3cc(C)c(C)cc32)c1OC | 25.1 µM [rising, single point] | –
C=C[C@]1(C)C=C2CCC3[C@](C)(CCC[C@@]3(C)C(=O)O)C2CC1 (stereo partly drawn) | 5.8 µM [rising, partial curve, poor fit] | –
O=C(COC(=O)c1cc(Cl)ccc1O)Nc1ccc2c(c1)OCCO2 | 9.2 µM [falling, partial curve] | –
Cc1nc(-c2ccc(NC(=O)c3ccco3)cc2)cs1 | 1.58 µM [falling, full curve] | –
C/C(=N\NC(=O)c1ccc(NS(=O)(=O)c2cccs2)cc1)c1ccc(O)cc1O | 7.08 µM [falling, partial curve] | –
Cc1ccc(NC(=O)CCN2CCN(C/C=C/c3ccccc3)CC2)cc1 | 8.2 µM [rising, partial curve, poor fit] | –
Cc1cc(N2CCCC2)nc(SCC(=O)c2ccccc2)n1 | 0.326 µM [rising, full curve, poor fit] | –
c1ccc(COc2ccc3nocc3c2)cc1 | 2.31 µM [rising, full curve, poor fit] | –
CC(C)c1ccc(/C=C/C(=O)CCC(=O)O)cc1 | 28.2 µM [falling, single point] | –
COc1ccc(OCCOC(=O)c2[nH]c(C)c(C(C)=O)c2C)cc1 | – | 10 µM [falling, partial curve]
Cc1cc(C)c(C#N)c(Nc2ccccc2)n1 | 6.51 µM [falling, single point] | –
O=C(CSc1nnc(-c2ccco2)o1)N1CCOCC1 | 29.1 µM [rising, single point] | –
Cn1cc(S(=O)(=O)CC(=O)Nc2ccc3c(c2)OCCO3)c2ccccc21 | 11.6 µM [falling, partial curve, poor fit] | –
Clc1ccc(-c2noc(/C=C/c3ccccc3)n2)cc1 | 35.5 µM [rising, single point] | –
O=C(COC(=O)/C=C/c1cccc(Cl)c1)NCc1cccs1 | 16.4 µM [rising, partial curve, poor fit] | –
COc1ccc2cc(CCNC(=O)c3cccc([N+](=O)[O-])c3)c(=O)[nH]c2c1 | 17.8 µM [falling, single point] | –

In the list so far, these have a nitro group on carbon:
Compound | AC50 [1] | AC50 [2]
O=C(CC1CC2CCC1C2)N1CCN(S(=O)(=O)c2ccccc2[N+](=O)[O-])CC1 (stereo not drawn) | 0.366 µM [rising, partial curve, poor fit] | –
Cc1ccc(C(=O)N/N=C\c2ccc([N+](=O)[O-])o2)cn1 | 35.5 µM [falling, single point] | –
COc1ccc2cc(CCNC(=O)c3cccc([N+](=O)[O-])c3)c(=O)[nH]c2c1 | 17.8 µM [falling, single point] | –
